Some of the results follow. These are further read-outs of the screen, such as a control signal, another cell line or another target. No call is given for them. The list favours compounds with an active or inconclusive main result. For part of these data: The note in brackets gives the kind of curve behind each potency; many fits are weak.
How the values were obtained:
[1] = Validation of Assay for Modulators of Lamin A Splicing (AID 1459); conditions: Lamin A splicing dual RFP/GFP fluorescence reporter, ratio
In short: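 HeLa S3 lamin A-EGFP/DsRed2 stable clone, 600 cells/well, Opti-MEM 2% FBS; compounds by pin tool; 48 hrs, 37 °C/5% CO2; Acumen 488 nm scan, objects 10-100 um; GFP/RFP intensity ratio.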

Chains of the proteins cited; added tags and fusions are not shown. Lines headed by an entry give the natural chain unless they say otherwise; changes in a name come on top.
UniProt P11086: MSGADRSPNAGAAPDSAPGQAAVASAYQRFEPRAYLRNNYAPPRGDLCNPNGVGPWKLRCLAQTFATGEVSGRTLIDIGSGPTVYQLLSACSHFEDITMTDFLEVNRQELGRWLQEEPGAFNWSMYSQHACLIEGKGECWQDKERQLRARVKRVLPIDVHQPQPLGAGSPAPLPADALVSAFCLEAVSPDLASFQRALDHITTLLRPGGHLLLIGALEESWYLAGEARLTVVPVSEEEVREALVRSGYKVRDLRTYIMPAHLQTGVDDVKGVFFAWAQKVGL

[2] = qHTS Assay for Modulators of Human Peripheral Myelin Protein 22 (PMP22) Expression/Activity (AID 1967); conditions: Cell-based PMP22 reporter, dual-color luciferase ratio
In short: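 Luminescence ratio of Pmp22 promoter-driven green luciferase to EF-alpha-driven red luciferase, in engineered mouse MSC80 Schwann cells, served as read-out. Compounds were incubated 24h; untreated cells defined 0% Activity; curves were classified by r2, magnitude and activity.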

[3] = qHTS Assay for Lipid Storage Modulators (AID 1519); conditions: Drosophila S3 cells, BODIPY lipid droplet/cell ratio, laser cytometry, cells loaded with oleic acid
In short: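 Cells seeded at 5,000 per well were treated with compounds over a concentration series and loaded with oleic acid (400 uM, as added). Lipid droplet fluorescence (488 nm excitation, 500-530 nm channel) was read by laser-scanning cytometry and normalized to 20 uM Triacsin C.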

[4] = qHTS Validation Assay to Find Inhibitors of Chronic Active B-Cell Receptor Signaling (AID 485345); conditions: ABC-DLBCL cells, chronic BCR signaling reporter
In short: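 TMD8 ABC-DLBCL cells stably carrying doxycycline-inducible IkappaBalpha–green luciferase fusion plus unfused red luciferase; compounds 46 uM to 3 nM, 4 h at 37C with doxycycline. Corrected green/red luminescence ratio normalized to 10 uM MG-132 and basal cell wells; curves fitted.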

[5] = qHTS for identification of novel therapeutic agents for treatment of microphthalmiaassociated transcription factor (MiT) renal cell carcinoma (RCC) (AID 1963991); conditions: CellTiter-Glo, 48 h; for z-score: stronger effect = lower value;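 on z-score: curves scaled with 100% = DMSO viability and 0% = empty wells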
In short: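 UOK109/UOK124/UOK145 (TFE3 fusions, three partners); 500 cells/well; MIPE v4.0, 1912 cpds, 11 conc.; 48 h, 37 C; CellTiter-Glo, 15 min RT; lum. Norm.: DMSO 100%, empty 0%.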

[6] = Nrf2 qHTS screen for inhibitors: Validation (AID 493153); conditions: A549 ARE-Fluc reporter, 18-24 h; AC50: CellTiter-Fluor fluorescence read, measured here: cytotoxicity CellTiter-Fluor AC50; viability change: measured here: cytotoxicity max response
In short: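 Luminescence from an ARE-firefly luciferase reporter in A549 cells gives Nrf2 inhibition; an earlier CellTiter-Fluor fluorescent read flags cytotoxicity. Cells in 5% FBS OPTI-MEM received compound dilution series for 18-24 h at 37°C.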

[7] = qHTS Assay for Inhibitors of PDE-IV (AID 607); conditions: HEK293 ACTOne CNG channel cells, membrane potential fluorescence; measured here: parental cell counter-screen
In short: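 The readout is membrane depolarisation from a cAMP-sensing CNG channel, detected with a potential dye at ex 535/em 590. Cells were HEK293-derived (endogenous PDE-IV) at 1000 cells/well, titrated up to 22.9 uM final.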

[8] = molecular target: Phenylethanolamine N-methyltransferase (Homo sapiens) (UniProt P11086); assay: Confirmatory Screen for Target Class Profiling of Small Molecule Inhibitors of Methyltransferases (AID 1745852); conditions: MTase-Glo luminescence, SAH detection, recombinant enzyme; measured here: PNMT inhibition potency
[9] = NCATS anti-infectives library activity on the primary C. elegans qHTS viability assay (AID 1745855); conditions: C. elegans worm area imaging, day 7, measured here: worm number
In short: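 Viability read-out is GFP fluorescence of PE254-GFP-FLuc C. elegans, measured by laser cytometry (488 nm) at day 0, 3 and 7. Ten L1 worms per well were incubated 7 days at 21 °C with compounds and bacterial capsules in S medium.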

[10] = Cell-based coincidence reporter assay to measure PMP22 gene transcription in S16 Pmp22-F2sN cells - Confirmatory screen (AID 1508646); conditions: S16 Schwann cells Pmp22-F2sN, dual luciferase, 24 h
In short: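 S16 rat Schwann cells carrying FLuc-2A-NLuc reporter in Pmp22 3' UTR (500-1,000 cells/well) treated with pinned compounds for 24 h at 37C. Dual-luciferase reads: FLuc luminescence first, then NLuc after Stop&Glo.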

[11] = A High-Content qHTS Against Drug Library for the Identification of Small Molecules that Inhibit DYT1 Early Onset Primary Dystonia-Associated Cell Pathology (AID 1645839); conditions: HEK293 Flp-In EGFP-delE TorsinA, punctate imaging, 48 h; measured here: cell count cytotoxicity
In short: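 Flp-In T-REx 293 cells with tetracycline-inducible EGFP-delE hTOR1A (WT EGFP-hTOR1A as reference), 800 cells/well; compound added with tetracycline, 48 h at 37 C. Fixed, permeabilized cells imaged; %pathology (punctate TorsinA) primary, cell count counterscreen.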

[12] = measured here: red reporter channel AC50, EF-alpha promoter control reporter in MSC80 mouse Schwann cells
[13] = measured here: cell count channel max response
[14] = measured here: cell number channel AC50
[15] = measured here: lipid (BODIPY) channel AC50
[16] = measured here: lipid channel max response
[17] = measured here: CBR control luciferase (viability counter)
[18] = measured here: FLuc reporter channel
[19] = measured here: NLuc reporter channel

C[N+]1(C)CCC(OC(=O)C(c2ccccc2)c2ccccc2)CC1
AC50 ([1]; measured here: GFP channel): 35.5 µM [falling, single point] | AC50 ([1]; measured here: RFP channel): 35.5 µM [falling, single point] | AC50 [2, 12]: 12 µM [rising, partial curve, poor fit]

COC[C@H]1OC(=O)c2coc3c2[C@@]1(C)C1=C(C3=O)C2CCC(=O)[C@@]2(C)C[C@H]1OC(C)=O (stereo not given in full)
AC50 ([1]; measured here: GFP channel): 15.8 µM [falling, single point] | AC50 ([1]; measured here: RFP channel): 35.5 µM [falling, single point] | max response [3, 13]: -86.6% | AC50 [3, 14]: 22.4 µM [falling, partial curve] | AC50 [3, 15]: 22.4 µM [falling, partial curve, poor fit] | max response [3, 16]: -87.3% | AC50 ([2]; measured here: green reporter channel AC50, mouse Pmp22 promoter in mouse Schwann cells): 26.9 µM [falling, full curve] | AC50 [2, 12]: 37.9 µM [falling, partial curve] | AC50 ([4]; measured here: CBG/CBR ratio read-out): 0.326 µM [falling, full curve] | AC50 [4, 17]: 4.11 µM [rising, full curve] | z-score ([5]; TFE3-RCC UOK109 viability, measured here: UOK109 Z-AUC): -0.0779 | z-score ([5]; TFE3-RCC viability, measured here: UOK124 Z-AUC): 0.269 | z-score ([5]; TFE3-RCC viability, measured here: UOK145 Z-AUC): 0.055 | AC50 ([5]; TFE3-RCC viability, measured here: UOK145 cell viability): 8.33 µM [falling, partial curve]

C/C(O)=C(\C#N)C(=O)Nc1cc(Br)ccc1Br
AC50 ([1]; measured here: GFP channel): 22.4 µM [falling, partial curve] | AC50 ([1]; measured here: RFP channel): 22.4 µM [falling, partial curve] | max response [3, 13]: -29% | AC50 [3, 14]: 1.12 µM [falling, full curve, poor fit] | AC50 [3, 15]: 1.12 µM [falling, full curve, poor fit] | max response [3, 16]: -29.7% | AC50 [4, 17]: 29.1 µM [falling, single point] | viability change [6]: -11.3%

CC(C)(C)c1cc(C=C(C#N)C#N)cc(C(C)(C)C)c1O
AC50 [7]: 3.16 µM [rising, partial curve] | IC50 [8]: 21.7 µM [falling, partial curve, poor fit] | AC50 [9]: 0.103 µM [falling, full curve, poor fit]

Cc1ccc(-n2c(/C=C\c3ccc(F)c(F)c3)nc3ccccc3c2=O)c(C)c1
AC50 [10, 18]: 24.3 µM [falling, partial curve] | AC50 [10, 19]: 43.2 µM [falling, single point]

Cc1ccc(NC(=O)N(Cc2ccc3c(c2)OCO3)C2CCN(Cc3ccccc3)CC2)cc1C
AC50 [10, 18]: 27.3 µM [falling, partial curve, poor fit] | AC50 [10, 19]: 21.7 µM [falling, partial curve]

c1ccc2c(c1)OCC(C1=NCCN1)O2 (stereo not given)
AC50 [11]: 12.6 µM [falling, single point]

CCC1(C2=NCCN2)Cc2ccccc2O1 (stereo not given)
max response [3, 13]: 42.6% | max response [3, 16]: 40.8%

CC12CCC3C(CCC4=C(O)C(=O)CCC43C)C1CCC2=O (stereo not given)
max response [3, 13]: 39.7% | max response [3, 16]: 38%

COc1ccc(C[C@@H]2NC[C@H](O)[C@@H]2OC(C)=O)cc1
max response [3, 13]: -24.9% | AC50 [3, 15]: 1 µM [falling, full curve] | max response [3, 16]: -58.5%

CC[C@@H](CO)NC(=O)[C@H]1C=C2c3cccc4[nH]cc(c34)C[C@H]2N(C)C1
max response [3, 13]: 44.9% | max response [3, 16]: 62%

NC(N)=NN=Cc1c(Cl)cccc1Cl
max response [3, 13]: 67% | max response [3, 16]: 90.1%

C[N+]1(C)C2CCC1CC(OC(=O)C(CO)c1ccccc1)C2 (stereo not given)
max response [3, 13]: 54% | max response [3, 16]: 43%

C=CCN1CC[C@]23c4c5ccc(O)c4OC2C(=O)CC[C@]3(O)C1C5 (stereo not given in full)
max response [3, 13]: 19% | AC50 [3, 15]: 7.08 µM [rising, partial curve, poor fit] | max response [3, 16]: 31.9%

CC(=O)OCC1=C(C(=O)O)N2C(=O)C(NC(=O)CCCC(N)C(=O)O)C2SC1 (stereo not given)
max response [3, 13]: 18.9% | AC50 [3, 15]: 39.8 µM [rising, single point] | max response [3, 16]: 31.8%

C/C(=C\[C@@H](N)C(=O)O)CP(=O)(O)O
max response [3, 13]: 1.74% | max response [3, 16]: 5.68%

C[C@H]1C2Cc3ccc(O)cc3[C@]1(C)CCN2CC1CC1
max response [3, 13]: 51.8% | max response [3, 16]: 52.1%

COC(=O)C(N)CCCN=C(N)N[N+](=O)[O-] (stereo not given)
max response [3, 13]: 39.1% | max response [3, 16]: 37.6%

CC(C)=CCCC1(C)C=Cc2c(O)c3c(c(CC=C(C)C)c2O1)OC12C(CC4CC1C(C)(C)OC2(C/C=C(/C)C(=O)O)C4O)C3=O (stereo not given)
max response [3, 13]: -13.5% | AC50 [3, 15]: 15.8 µM [falling, partial curve] | max response [3, 16]: -40.7%

CC(=O)OCC1=C(C(=O)[O-])N2C(=O)[C@@H](NC(=O)CCC[C@@H](N)C(=O)[O-])[C@H]2SC1.[Zn+2]
max response [3, 13]: 38.8% | max response [3, 16]: 40.4%

C[C@@H]1O[C@@H](O[C@H]2C[C@@H](O)[C@]3(CO)[C@H]4[C@H](O)C[C@]5(C)[C@@H]([C@@H]6COC(=O)C6)CC[C@]5(O)[C@@H]4CC[C@]3(O)C2)[C@H](O)[C@H](O)[C@H]1O
max response [3, 13]: 63.6% | max response [3, 16]: 64.3%

Oc1ccc2c3c1O[C@H]1[C@@H](O)CC[C@@]4(O)C(C2)N(CC2CCC2)CCC314 (stereo not given in full)
max response [3, 13]: 38.2% | max response [3, 16]: 40.3%

NCCc1c[nH]c2ccc(C(N)=O)cc12
max response [3, 13]: 63.9% | max response [3, 16]: 66.6%

CC[C@@]1(O)CC(O)c2c(cc3c(c2O)C(=O)c2c(O)ccc(O)c2C3=O)C1C(=O)OC (stereo not given in full)
max response [3, 13]: -26.7% | AC50 [3, 15]: 31.6 µM [falling, single point] | max response [3, 16]: -93.2%

CP(=O)(O)CCCN
max response [3, 13]: -21.6% | AC50 [3, 14]: 0.141 µM [falling, full curve, poor fit] | max response [3, 16]: -22.6%

— PubChem BioAssay (NCATS)
